In PMC4641468 one finds binding data, which are given here for two molecules.

Amino acid sequences for entries named in this document (tags omitted).
UniProt Q6ZPR4: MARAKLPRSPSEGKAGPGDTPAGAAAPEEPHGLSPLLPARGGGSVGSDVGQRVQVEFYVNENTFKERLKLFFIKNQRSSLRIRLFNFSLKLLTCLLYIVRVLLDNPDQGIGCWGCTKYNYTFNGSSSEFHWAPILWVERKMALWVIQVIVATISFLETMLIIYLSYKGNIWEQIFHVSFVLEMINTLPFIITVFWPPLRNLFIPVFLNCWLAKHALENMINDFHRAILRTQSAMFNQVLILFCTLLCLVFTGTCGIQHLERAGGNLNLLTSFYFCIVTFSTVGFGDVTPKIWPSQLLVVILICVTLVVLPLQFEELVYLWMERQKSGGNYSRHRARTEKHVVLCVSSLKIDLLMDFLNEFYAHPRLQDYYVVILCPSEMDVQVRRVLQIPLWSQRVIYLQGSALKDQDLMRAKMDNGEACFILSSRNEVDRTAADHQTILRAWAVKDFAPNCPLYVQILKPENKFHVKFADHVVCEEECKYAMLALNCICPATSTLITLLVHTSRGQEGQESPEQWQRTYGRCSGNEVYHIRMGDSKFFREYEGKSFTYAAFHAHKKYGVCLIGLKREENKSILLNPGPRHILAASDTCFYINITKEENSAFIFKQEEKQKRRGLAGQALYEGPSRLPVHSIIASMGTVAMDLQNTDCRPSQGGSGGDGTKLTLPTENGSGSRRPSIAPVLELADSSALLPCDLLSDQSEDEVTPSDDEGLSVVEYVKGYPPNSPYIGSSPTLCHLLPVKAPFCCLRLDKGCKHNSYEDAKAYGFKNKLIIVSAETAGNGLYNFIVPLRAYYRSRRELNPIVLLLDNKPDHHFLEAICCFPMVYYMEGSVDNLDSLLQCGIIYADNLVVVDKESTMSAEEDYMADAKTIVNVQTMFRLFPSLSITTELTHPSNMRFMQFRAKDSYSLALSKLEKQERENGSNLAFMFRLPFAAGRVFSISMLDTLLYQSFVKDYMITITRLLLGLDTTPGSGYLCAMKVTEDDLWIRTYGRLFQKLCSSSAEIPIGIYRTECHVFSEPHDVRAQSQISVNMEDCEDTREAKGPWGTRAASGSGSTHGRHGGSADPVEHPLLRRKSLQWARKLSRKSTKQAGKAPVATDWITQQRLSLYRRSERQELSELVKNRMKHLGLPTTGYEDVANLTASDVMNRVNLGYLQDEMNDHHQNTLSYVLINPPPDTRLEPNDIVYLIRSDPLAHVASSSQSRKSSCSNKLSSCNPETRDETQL

No constants are given. Whether binding was seen depends on the method and setting. In cells and extracts the contact can be indirect. Some results given as binding are weak or reduced against the parent protein; the word gives no strength.

Test [1] addresses T1, Slo2.1 (Slick channel subunit, gene Kcnt2) (mouse (endogenous in mouse brain, DRG, spinal cord, cortex)) (UniProt D3Z649).
T1 sequence: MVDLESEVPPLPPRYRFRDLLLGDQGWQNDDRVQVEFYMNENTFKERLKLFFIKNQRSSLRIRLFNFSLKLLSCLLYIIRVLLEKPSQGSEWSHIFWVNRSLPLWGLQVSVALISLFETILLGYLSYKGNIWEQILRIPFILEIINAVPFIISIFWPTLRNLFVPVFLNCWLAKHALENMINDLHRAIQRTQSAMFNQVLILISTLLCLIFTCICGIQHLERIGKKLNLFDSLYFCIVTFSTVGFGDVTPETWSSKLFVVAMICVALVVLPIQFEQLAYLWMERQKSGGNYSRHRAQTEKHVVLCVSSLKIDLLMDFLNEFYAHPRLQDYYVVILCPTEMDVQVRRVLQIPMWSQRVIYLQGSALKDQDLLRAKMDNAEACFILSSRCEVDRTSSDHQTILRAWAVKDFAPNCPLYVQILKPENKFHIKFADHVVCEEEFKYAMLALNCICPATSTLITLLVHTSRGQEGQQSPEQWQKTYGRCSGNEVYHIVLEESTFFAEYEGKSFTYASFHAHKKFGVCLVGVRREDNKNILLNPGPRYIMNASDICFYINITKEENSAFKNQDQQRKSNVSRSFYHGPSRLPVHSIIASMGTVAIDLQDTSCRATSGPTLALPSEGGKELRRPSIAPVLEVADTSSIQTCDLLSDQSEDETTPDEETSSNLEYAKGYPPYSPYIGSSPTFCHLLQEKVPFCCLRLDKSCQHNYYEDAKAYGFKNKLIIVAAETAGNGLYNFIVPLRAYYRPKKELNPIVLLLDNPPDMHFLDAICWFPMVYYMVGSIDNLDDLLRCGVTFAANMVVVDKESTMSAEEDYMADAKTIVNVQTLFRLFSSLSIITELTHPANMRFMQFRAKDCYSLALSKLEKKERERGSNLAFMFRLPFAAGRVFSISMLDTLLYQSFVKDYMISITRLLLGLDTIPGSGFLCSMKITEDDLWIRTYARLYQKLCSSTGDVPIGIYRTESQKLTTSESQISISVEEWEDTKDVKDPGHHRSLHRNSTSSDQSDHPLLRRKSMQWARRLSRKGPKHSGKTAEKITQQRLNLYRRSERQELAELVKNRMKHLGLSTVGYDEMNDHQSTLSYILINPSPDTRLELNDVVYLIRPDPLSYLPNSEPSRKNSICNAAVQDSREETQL
In words: co-IP; WT mouse tissues: DRG total protein (3 mg), spinal cord (1 mg) and cortex (0.3-0.5 mg) membrane proteins; sequential IP with anti-Slo2.1 or anti-Slo2.2 antibody and western blot for the other subunit. A general note: A western blot detects proteins with antibodies after separation by electrophoresis.

In test [2] the target is T1, Slo2.1 (Slick channel subunit, gene Kcnt2) (mouse (endogenous in mouse brain, DRG, spinal cord, cortex)). Briefly: condition: only the two subunits mixed after separate preparation of Slo2.2 KO and Slo2.1 KO brain membrane proteins; co-IP; mix of separately prepared Slo2.2 KO and Slo2.1 KO mouse brain membrane protein preparations; IP with anti-Slo2.1 antibody, western blot for Slo2.2; 62.5 ug protein per IP.

For test [3] the target is unchanged. Briefly: co-IP; WT mouse whole brain membrane proteins (2% Triton X-100 lysis buffer), 62.5 ug protein per IP; IP with 8 ug monoclonal anti-mSlo2.1 (N11/33) or anti-mSlo2.2 (N3/26) and Protein A/G Plus agarose beads at 4°C, washed with 1% Triton X-100 in PBS; western blot for the other subunit; Slo2.1 KO and Slo2.2 KO membranes as controls.
Test [4] addresses Slo2.2 (Slack channel subunit, gene Kcnt1) (mouse (endogenous in mouse brain, DRG, spinal cord, cortex)) (UniProt Q6ZPR4). Briefly: co-IP; WT mouse tissues: DRG total protein (3 mg), spinal cord (1 mg) and cortex (0.3-0.5 mg) membrane proteins; sequential IP with anti-Slo2.1 or anti-Slo2.2 antibody and western blot for the other subunit.
Test [5] shares this target. Briefly: co-IP; WT mouse whole brain membrane proteins (2% Triton X-100 lysis buffer), 62.5 ug protein per IP; IP with 8 ug monoclonal anti-mSlo2.1 (N11/33) or anti-mSlo2.2 (N3/26) and Protein A/G Plus agarose beads at 4°C, washed with 1% Triton X-100 in PBS; western blot for the other subunit; Slo2.1 KO and Slo2.2 KO membranes as controls.

As to “Slo2.2 (Slack channel subunit, gene Kcnt1) (from UniProt Q6ZPR4 1-1224)”, the binding result was “binds” in test [1], “no binding” in test [2] and “binds” in test [3].

B1: Slo2.1 (Slick channel subunit, gene Kcnt2) (protein, UniProt D3Z649 1-1135)
chain: MVDLESEVPPLPPRYRFRDLLLGDQGWQNDDRVQVEFYMNENTFKERLKLFFIKNQRSSLRIRLFNFSLKLLSCLLYIIRVLLEKPSQGSEWSHIFWVNRSLPLWGLQVSVALISLFETILLGYLSYKGNIWEQILRIPFILEIINAVPFIISIFWPTLRNLFVPVFLNCWLAKHALENMINDLHRAIQRTQSAMFNQVLILISTLLCLIFTCICGIQHLERIGKKLNLFDSLYFCIVTFSTVGFGDVTPETWSSKLFVVAMICVALVVLPIQFEQLAYLWMERQKSGGNYSRHRAQTEKHVVLCVSSLKIDLLMDFLNEFYAHPRLQDYYVVILCPTEMDVQVRRVLQIPMWSQRVIYLQGSALKDQDLLRAKMDNAEACFILSSRCEVDRTSSDHQTILRAWAVKDFAPNCPLYVQILKPENKFHIKFADHVVCEEEFKYAMLALNCICPATSTLITLLVHTSRGQEGQQSPEQWQKTYGRCSGNEVYHIVLEESTFFAEYEGKSFTYASFHAHKKFGVCLVGVRREDNKNILLNPGPRYIMNASDICFYINITKEENSAFKNQDQQRKSNVSRSFYHGPSRLPVHSIIASMGTVAIDLQDTSCRATSGPTLALPSEGGKELRRPSIAPVLEVADTSSIQTCDLLSDQSEDETTPDEETSSNLEYAKGYPPYSPYIGSSPTFCHLLQEKVPFCCLRLDKSCQHNYYEDAKAYGFKNKLIIVAAETAGNGLYNFIVPLRAYYRPKKELNPIVLLLDNPPDMHFLDAICWFPMVYYMVGSIDNLDDLLRCGVTFAANMVVVDKESTMSAEEDYMADAKTIVNVQTLFRLFSSLSIITELTHPANMRFMQFRAKDCYSLALSKLEKKERERGSNLAFMFRLPFAAGRVFSISMLDTLLYQSFVKDYMISITRLLLGLDTIPGSGFLCSMKITEDDLWIRTYARLYQKLCSSTGDVPIGIYRTESQKLTTSESQISISVEEWEDTKDVKDPGHHRSLHRNSTSSDQSDHPLLRRKSMQWARRLSRKGPKHSGKTAEKITQQRLNLYRRSERQELAELVKNRMKHLGLSTVGYDEMNDHQSTLSYILINPSPDTRLELNDVVYLIRPDPLSYLPNSEPSRKNSICNAAVQDSREETQL
As for B1, the binding entry in test [4] and in test [5] was “binds” in each case.
